From patent publication US20150111852A1, “1-Di(sec-butyl)-phosphinoyl-pentane (dapa-2-5) as a topical agent” (priority 2013, published 2015) come the findings set out here.

For the data set, the system named is mouth and throat. Put plainly: Sensory activity of ODT-C on volunteers (double-blind, modified ASHRAE scale). Format: in vivo, human. The following applies: ODT on the tongue. The protocol:
ODT-C. More experiments were conducted to find a smaller tablet, in the range of 40 to 60 mg, with a disintegration of <10 sec. These paraemters might achieve a better pharmacological effect. ODT-B was 100 mg in size and disintegrated in <20 sec. […] For example, to 1.5 g of DAPA-2-5 is added 1.5 g of absolute ethanol, followed by 2.0 g of Neusilin US2. The mixture is shaken or mixed in a Speedmixer at 500 rpm for 1 min. The sample is placed under a heat source and about 2 hr later, the sample size is re-weighed with the expectation that the ethanol has been evaporated and the sample now weights 3.5 g. This powder is free-flowing. • b. a sample of maltitol powder is prepared (Maltisorb® P200 from Roquette). • c. a sample of Prosolv® EasyTab is prepared (JRS Pharma, Rosenburg, Germany). • d. a blend of a. [2.80 g], b. [15.73 g] and c. [31.46 g] is prepared to make 1000 ODT tablets, each weighing 50 mg and containing 1.2 mg of DAPA-2-5. • e. the blend is first shaken by hand, then placed for 2 min in a SpeedMixer at 500 rpm. The blend is poured into the funnel of a New Single Punch Tablet Press Pill Making Machine Maker TDP-1-5 [available from Amazon.com] and the extruded tablets are collected.
ODT-C, described in Study 2, were tested for sensory properties on 4 volunteers, with at least 3 trials per compound and at 1.2 to 1.5 mg per ODT. The ODT was placed on the mid-line posterior dorsal surface of the tongue and sensory effects recorded for 30 min on a standardized form […]. The ODT were coded and administered on a double-blind basis. A modified ASHRAE scale of neutral, slightly cool [-1], cool [-2], cold [-3], and icy cold [-4] was used to rank the peak heat abstraction sensations in the mouth and throat. Other perceived effects, e.g. taste and duration, were also noted.
Take `CCCCCCP(=O)(C(C)C)C(C)C` [DAPA-1-6, 1-Di(isopropyl)-phosphinoyl-hexane]: the taste result is “unpleasant taste”.
In the case of `CCCCCCCP(=O)(C(C)C)C(C)C` [DAPA-1-7, 1-Di(isopropyl)-phosphinoyl-heptane], the taste result is given as “unpleasant taste”.
Under `CCCCCCCCP(=O)(C(C)C)C(C)C` [DAPA-1-8, 1-Di(isopropyl)-phosphinoyl-octane] stands “unpleasant taste”; under `CCCCCP(=O)(C(C)CC)C(C)CC` (stereo not shown) [DAPA-2-5, 1-Di(sec-butyl)-phosphinoyl-pentane], “slight organic sweetish taste”; under `CCCCCCP(=O)(C(C)CC)C(C)CC` (stereo not shown) [DAPA-2-6, 1-Di(sec-butyl) phosphinoyl-hexane], “unpleasant taste”.
`CCCCCCCP(=O)(C(C)CC)C(C)CC` (stereo not shown) [DAPA-2-7, 1-Di(sec-butyl) phosphinoyl-heptane]: the taste result is listed as “unpleasant taste”.
Turning to `CCCCCCCCP(=O)(C(C)CC)C(C)CC` (stereo not shown) [DAPA-2-8, 1-Di(sec-butyl) phosphinoyl-octane], the taste result is reported as “unpleasant tastes were especially prominent”.
